Experimental data as given in article PMC5666082.
No constants are given. Whether binding was seen depends on the method and setting. Some results given as binding are weak or reduced against the parent protein; the word gives no strength. Sequences can lack the tags named with a protein.

T1: GST-Su(Hw) N-terminal domain (aa 1-238) (Drosophila) (UniProt P08970)
T1 sequence: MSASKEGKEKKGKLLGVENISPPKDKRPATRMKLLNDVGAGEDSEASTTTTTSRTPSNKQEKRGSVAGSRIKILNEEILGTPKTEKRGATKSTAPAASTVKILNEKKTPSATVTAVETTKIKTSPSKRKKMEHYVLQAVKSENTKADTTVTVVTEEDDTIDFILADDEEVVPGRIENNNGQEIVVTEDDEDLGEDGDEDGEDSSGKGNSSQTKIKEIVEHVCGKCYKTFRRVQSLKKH

T2: Su(Hw) C-terminal region, aa 672-892 (yeast two-hybrid fusion) (Drosophila) (UniProt P08970)
T2 sequence: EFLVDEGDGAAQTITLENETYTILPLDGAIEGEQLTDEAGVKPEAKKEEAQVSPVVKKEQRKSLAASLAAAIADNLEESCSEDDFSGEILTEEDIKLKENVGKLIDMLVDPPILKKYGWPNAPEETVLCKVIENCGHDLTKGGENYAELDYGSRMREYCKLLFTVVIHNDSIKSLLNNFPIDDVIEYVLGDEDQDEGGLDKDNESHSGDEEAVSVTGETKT

T3: GST-Mod(mdg4)-67.2 (Drosophila) (UniProt Q86B87)
T3 sequence: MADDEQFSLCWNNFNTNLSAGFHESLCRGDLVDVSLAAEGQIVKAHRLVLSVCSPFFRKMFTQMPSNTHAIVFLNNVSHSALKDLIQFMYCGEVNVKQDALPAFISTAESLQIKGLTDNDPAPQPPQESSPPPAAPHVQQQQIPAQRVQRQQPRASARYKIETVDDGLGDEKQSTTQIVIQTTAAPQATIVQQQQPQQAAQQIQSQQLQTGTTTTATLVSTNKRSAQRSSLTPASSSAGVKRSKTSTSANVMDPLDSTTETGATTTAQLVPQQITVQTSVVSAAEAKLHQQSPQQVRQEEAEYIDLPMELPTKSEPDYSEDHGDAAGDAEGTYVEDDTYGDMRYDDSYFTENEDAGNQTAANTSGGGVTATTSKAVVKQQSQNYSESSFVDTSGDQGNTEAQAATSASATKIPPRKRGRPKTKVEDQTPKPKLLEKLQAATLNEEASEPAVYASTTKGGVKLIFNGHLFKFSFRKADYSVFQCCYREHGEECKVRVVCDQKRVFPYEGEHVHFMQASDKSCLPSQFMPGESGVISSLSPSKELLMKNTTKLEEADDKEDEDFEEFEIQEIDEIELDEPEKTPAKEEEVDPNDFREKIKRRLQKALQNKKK

B1: His-fusion Mod(mdg4)-67.2 aa 118-277 (domain or fragment, UniProt Q86B87 118-277)
chain: DNDPAPQPPQESSPPPAAPHVQQQQIPAQRVQRQQPRASARYKIETVDDGLGDEKQSTTQIVIQTTAAPQATIVQQQQPQQAAQQIQSQQLQTGTTTTATLVSTNKRSAQRSSLTPASSSAGVKRSKTSTSANVMDPLDSTTETGATTTAQLVPQQITVQ
B2: Mod(mdg4)-67.2 C-terminal region (568-610), Su(Hw)-interacting domain (yeast two-hybrid fusion) (domain or fragment, UniProt Q86B87 568-610)
chain: QEIDEIELDEPEKTPAKEEEVDPNDFREKIKRRLQKALQNKKK
B3: His-fusion Su(Hw) MID (716-892 region) (domain or fragment, UniProt P08970 716-892)
chain: AKKEEAQVSPVVKKEQRKSLAASLAAAIADNLEESCSEDDFSGEILTEEDIKLKENVGKLIDMLVDPPILKKYGWPNAPEETVLCKVIENCGHDLTKGGENYAELDYGSRMREYCKLLFTVVIHNDSIKSLLNNFPIDDVIEYVLGDEDQDEGGLDKDNESHSGDEEAVSVTGETKT
B4: Mod(mdg4)-67.2 derivative devoid of the C-terminal region (1-568) (yeast two-hybrid fusion) (domain or fragment, UniProt Q86B87 1-568)
chain: MADDEQFSLCWNNFNTNLSAGFHESLCRGDLVDVSLAAEGQIVKAHRLVLSVCSPFFRKMFTQMPSNTHAIVFLNNVSHSALKDLIQFMYCGEVNVKQDALPAFISTAESLQIKGLTDNDPAPQPPQESSPPPAAPHVQQQQIPAQRVQRQQPRASARYKIETVDDGLGDEKQSTTQIVIQTTAAPQATIVQQQQPQQAAQQIQSQQLQTGTTTTATLVSTNKRSAQRSSLTPASSSAGVKRSKTSTSANVMDPLDSTTETGATTTAQLVPQQITVQTSVVSAAEAKLHQQSPQQVRQEEAEYIDLPMELPTKSEPDYSEDHGDAAGDAEGTYVEDDTYGDMRYDDSYFTENEDAGNQTAANTSGGGVTATTSKAVVKQQSQNYSESSFVDTSGDQGNTEAQAATSASATKIPPRKRGRPKTKVEDQTPKPKLLEKLQAATLNEEASEPAVYASTTKGGVKLIFNGHLFKFSFRKADYSVFQCCYREHGEECKVRVVCDQKRVFPYEGEHVHFMQASDKSCLPSQFMPGESGVISSLSPSKELLMKNTTKLEEADDKEDEDFEEFEIQ

Tests used:
[1] = biological target: T1, GST-Su(Hw) N-terminal domain (aa 1-238) (Drosophila); assay: pull-down; GST fusion on Glutathione Sepharose 4B beads in 20 mM Hepes-KOH pH 7.6, 200 mM KCl, 2.5 mM MgCl2, 10% glycerol, 0.05% NP40; blocked with 5% BSA; incubated with 6His-tagged protein for 3 h; washed with 400 mM NaCl, 0.2% NP40; blot with anti-His; both purified
[2] = biological target: T2, Su(Hw) C-terminal region, aa 672-892 (yeast two-hybrid fusion) (Drosophila); assay: two-hybrid; yeast strain pJ694A, Clontech plasmids; GAL4 activation and DNA-binding domains fused to the N- or C-ends of the test proteins; growth on media without tryptophan, leucine, histidine and adenine compared after 2-3 days at 30°C
[3] = biological target: T3, GST-Mod(mdg4)-67.2 (Drosophila); assay: pull-down; GST fusion on Glutathione Sepharose 4B beads in 20 mM Hepes-KOH pH 7.6, 200 mM KCl, 2.5 mM MgCl2, 10% glycerol, 0.05% NP40; blocked with 5% BSA; incubated with 6His-tagged protein for 3 h; washed with 400 mM NaCl, 0.2% NP40; blot with anti-His; both purified

Row | Binder | binding [2] | also measured
1 | B1 | – | binding [1]: binds
2 | B2 | binds | –
3 | B3 | – | binding [3]: binds
4 | B4 | no binding | –
